Reference: paper PMC9132088
Results are given in words; binding and its absence hold for the method and conditions named. Binding seen in cells or lysates may run through a third protein. A yes stands for co-enrichment or nearness to the bait. Other partners may have been found. For some of these results: A no says only that the protein was not detected with the bait.

Chains of the proteins cited; added tags and fusions are not shown. Residues count along the entry.
UniProt P21796: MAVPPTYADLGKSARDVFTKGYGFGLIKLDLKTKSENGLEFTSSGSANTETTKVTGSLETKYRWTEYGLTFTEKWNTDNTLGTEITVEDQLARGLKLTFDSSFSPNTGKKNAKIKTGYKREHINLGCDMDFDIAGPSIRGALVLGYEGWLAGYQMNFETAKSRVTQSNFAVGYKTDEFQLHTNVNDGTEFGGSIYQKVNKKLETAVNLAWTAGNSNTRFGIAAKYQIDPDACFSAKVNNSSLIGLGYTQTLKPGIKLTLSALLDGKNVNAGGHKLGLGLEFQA
UniProt O75131: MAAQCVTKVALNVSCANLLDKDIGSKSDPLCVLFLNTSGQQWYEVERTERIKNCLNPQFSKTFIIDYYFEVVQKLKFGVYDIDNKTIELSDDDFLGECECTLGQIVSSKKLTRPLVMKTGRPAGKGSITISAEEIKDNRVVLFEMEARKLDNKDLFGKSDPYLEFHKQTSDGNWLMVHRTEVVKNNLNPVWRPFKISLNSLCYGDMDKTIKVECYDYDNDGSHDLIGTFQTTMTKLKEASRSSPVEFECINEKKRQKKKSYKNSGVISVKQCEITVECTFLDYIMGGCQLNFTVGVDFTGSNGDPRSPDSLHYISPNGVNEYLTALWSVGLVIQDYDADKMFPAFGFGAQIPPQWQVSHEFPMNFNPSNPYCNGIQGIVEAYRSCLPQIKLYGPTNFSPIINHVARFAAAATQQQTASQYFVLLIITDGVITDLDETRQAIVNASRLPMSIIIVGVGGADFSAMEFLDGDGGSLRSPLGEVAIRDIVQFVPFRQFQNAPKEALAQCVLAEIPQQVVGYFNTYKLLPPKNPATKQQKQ
UniProt Q12864, residues 23-832: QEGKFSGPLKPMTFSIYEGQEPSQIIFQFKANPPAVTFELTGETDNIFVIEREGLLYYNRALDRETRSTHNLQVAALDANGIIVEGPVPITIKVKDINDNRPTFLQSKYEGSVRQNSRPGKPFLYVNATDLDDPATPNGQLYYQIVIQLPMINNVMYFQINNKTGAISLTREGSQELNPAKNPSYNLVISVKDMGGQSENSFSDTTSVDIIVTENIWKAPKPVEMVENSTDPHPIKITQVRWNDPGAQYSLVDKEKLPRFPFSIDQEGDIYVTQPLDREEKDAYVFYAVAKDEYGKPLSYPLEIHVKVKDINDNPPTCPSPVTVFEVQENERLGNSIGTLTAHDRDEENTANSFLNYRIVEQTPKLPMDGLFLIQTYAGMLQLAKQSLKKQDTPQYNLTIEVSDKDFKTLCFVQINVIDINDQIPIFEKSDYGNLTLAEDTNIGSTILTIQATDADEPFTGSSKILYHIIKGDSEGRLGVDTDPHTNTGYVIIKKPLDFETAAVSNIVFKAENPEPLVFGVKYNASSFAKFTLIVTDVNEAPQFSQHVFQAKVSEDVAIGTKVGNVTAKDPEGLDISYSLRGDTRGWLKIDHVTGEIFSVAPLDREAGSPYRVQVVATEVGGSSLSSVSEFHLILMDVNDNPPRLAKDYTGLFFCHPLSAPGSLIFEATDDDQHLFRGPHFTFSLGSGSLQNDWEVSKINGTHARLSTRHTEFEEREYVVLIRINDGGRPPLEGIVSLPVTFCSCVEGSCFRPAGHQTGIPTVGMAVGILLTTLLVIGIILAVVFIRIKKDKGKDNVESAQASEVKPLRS
UniProt P13688, residues 35-526: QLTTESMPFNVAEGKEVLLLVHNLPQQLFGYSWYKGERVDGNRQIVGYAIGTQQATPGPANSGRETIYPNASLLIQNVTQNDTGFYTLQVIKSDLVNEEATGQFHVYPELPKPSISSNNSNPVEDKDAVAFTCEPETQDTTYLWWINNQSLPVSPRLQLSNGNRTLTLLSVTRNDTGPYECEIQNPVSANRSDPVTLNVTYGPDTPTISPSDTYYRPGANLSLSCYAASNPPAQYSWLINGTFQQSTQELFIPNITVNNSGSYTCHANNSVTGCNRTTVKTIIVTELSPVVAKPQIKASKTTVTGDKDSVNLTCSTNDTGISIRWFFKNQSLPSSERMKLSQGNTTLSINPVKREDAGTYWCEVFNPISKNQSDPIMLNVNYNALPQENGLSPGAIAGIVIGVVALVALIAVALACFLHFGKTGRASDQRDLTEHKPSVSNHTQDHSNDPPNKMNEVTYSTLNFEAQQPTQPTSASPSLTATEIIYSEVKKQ
UniProt P04004, residues 20-478: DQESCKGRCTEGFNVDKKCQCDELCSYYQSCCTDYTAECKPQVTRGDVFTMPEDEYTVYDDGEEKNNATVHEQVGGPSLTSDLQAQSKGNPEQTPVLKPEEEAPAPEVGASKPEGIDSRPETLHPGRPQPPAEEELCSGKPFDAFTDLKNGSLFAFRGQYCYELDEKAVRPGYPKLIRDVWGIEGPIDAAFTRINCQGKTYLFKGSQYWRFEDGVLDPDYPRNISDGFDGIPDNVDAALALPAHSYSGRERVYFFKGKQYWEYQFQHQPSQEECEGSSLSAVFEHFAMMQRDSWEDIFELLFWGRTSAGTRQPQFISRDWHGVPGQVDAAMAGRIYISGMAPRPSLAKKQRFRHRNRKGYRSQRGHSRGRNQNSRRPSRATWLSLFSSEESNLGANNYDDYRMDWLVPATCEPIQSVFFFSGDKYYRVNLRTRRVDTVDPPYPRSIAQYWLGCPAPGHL
UniProt P15924: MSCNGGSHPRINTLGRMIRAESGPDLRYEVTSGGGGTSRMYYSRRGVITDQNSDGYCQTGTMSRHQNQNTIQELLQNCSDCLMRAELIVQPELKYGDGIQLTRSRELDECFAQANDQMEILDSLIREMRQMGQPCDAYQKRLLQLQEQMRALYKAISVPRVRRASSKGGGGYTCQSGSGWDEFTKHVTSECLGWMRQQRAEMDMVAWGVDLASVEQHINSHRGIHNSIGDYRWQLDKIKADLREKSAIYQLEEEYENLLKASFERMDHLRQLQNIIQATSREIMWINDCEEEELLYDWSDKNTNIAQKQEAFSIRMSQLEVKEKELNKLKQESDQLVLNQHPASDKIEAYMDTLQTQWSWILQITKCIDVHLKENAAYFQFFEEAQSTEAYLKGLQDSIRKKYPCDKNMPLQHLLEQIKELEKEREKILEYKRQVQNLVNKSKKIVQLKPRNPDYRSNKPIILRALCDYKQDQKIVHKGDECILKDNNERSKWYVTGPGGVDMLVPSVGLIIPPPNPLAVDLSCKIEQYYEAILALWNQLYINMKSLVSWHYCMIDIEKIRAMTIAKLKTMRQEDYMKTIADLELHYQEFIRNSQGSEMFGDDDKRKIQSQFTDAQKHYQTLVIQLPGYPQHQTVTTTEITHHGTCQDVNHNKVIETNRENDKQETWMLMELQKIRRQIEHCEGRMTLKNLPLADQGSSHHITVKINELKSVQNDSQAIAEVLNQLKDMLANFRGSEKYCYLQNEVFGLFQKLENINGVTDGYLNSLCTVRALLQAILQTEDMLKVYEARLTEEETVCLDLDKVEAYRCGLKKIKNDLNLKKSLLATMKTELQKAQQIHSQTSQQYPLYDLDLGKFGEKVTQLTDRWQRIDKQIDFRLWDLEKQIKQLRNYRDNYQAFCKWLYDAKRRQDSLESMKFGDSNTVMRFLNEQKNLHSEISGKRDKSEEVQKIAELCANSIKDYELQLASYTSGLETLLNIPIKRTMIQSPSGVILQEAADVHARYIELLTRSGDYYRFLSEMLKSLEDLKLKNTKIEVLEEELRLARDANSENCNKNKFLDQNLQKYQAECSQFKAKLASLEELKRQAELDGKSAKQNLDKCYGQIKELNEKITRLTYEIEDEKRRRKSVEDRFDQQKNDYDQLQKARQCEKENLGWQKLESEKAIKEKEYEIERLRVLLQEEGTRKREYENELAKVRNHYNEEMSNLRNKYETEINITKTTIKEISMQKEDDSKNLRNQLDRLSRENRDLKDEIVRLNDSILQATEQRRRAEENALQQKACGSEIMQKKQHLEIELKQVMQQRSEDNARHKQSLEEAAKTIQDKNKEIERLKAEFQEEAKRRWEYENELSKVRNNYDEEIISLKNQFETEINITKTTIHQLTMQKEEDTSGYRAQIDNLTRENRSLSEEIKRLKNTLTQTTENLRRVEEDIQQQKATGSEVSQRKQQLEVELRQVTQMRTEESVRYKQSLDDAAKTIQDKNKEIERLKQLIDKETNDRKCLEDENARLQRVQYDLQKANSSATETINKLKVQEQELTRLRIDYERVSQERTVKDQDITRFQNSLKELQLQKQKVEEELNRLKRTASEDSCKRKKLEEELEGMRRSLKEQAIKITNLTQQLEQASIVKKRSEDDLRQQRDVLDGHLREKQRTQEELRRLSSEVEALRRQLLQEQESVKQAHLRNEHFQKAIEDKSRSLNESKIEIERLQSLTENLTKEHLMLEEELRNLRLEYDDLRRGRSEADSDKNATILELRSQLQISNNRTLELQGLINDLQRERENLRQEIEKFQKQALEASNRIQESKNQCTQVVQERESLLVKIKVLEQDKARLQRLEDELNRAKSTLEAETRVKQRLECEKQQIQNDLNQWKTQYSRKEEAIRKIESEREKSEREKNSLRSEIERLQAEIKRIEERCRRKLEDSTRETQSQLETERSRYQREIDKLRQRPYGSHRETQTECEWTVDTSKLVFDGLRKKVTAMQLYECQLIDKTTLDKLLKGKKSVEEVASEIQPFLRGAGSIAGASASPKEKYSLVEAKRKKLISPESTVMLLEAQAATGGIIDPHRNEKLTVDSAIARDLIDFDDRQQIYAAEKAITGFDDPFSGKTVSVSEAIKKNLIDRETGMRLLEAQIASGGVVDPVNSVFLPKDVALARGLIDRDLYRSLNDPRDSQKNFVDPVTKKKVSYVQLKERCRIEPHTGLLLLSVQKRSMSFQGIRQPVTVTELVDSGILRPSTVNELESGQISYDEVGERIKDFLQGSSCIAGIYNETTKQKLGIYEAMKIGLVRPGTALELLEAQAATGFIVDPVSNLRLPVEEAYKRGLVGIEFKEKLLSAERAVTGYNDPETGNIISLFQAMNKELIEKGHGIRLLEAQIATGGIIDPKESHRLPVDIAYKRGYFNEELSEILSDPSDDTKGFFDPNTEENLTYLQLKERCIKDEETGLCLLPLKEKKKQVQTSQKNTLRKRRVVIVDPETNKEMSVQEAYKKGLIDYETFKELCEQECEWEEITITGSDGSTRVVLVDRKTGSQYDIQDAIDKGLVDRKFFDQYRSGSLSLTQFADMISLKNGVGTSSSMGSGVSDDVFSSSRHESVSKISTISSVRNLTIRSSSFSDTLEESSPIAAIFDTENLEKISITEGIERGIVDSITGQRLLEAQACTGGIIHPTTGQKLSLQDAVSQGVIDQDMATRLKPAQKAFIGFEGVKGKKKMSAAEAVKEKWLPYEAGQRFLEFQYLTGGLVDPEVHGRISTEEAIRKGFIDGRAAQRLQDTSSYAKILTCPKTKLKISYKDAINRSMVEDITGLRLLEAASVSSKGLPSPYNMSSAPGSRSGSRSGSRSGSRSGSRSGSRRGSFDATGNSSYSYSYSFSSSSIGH

B1: PTPN1 (enzyme, UniProt P18031 1-435)
chain: MEMEKEFEQIDKSGSWAAIYQDIRHEASDFPCRVAKLPKNKNRNRYRDVSPFDHSRIKLHQEDNDYINASLIKMEEAQRSYILTQGPLPNTCGHFWEMVWEQKSRGVVMLNRVMEKGSLKCAQYWPQKEEKEMIFEDTNLKLTLISEDIKSYYTVRQLELENLTTQETREILHFHYTTWPDFGVPESPASFLNFLFKVRESGSLSPEHGPVVVHCSAGIGRSGTFCLADTCLLLMDKRKDPSSVDIKKVLLEMRKFRMGLIQTADQLRFSYLAVIEGAKFIMGDSSVQDQWKELSHEDLEPPPEHIPPPPRPPKRILEPHNGKCREFFPNHQWVKEETQEDKDCPIKEEKGSPLNAAPYGIESMSQDTEVRSRVVGGSLRGAQAASPAKGEPSLPEKDEDHALSYWKPFLVNMCVATVLTAGAYLCYRFLFNSNT
B2: S100A14 (protein, UniProt Q9HCY8 1-104)
chain: MGQCRSANAEDAQEFSDVERAIETLIKNFHQYSVEGGKETLTPSELRDLVTQQLPHLMPSNCGLEEKIANLGSCNDSKLEFRSFWELIGEAAKSVKLERPVRGH
B3: ATLA3 (protein, UniProt Q6DD88 1-541)
chain: MLSPQRVAAAASRGADDAMESSKPGPVQVVLVQKDQHSFELDEKALASILLQDHIRDLDVVVVSVAGAFRKGKSFILDFMLRYLYSQKESGHSNWLGDPEEPLTGFSWRGGSDPETTGIQIWSEVFTVEKPGGKKVAVVLMDTQGAFDSQSTVKDCATIFALSTMTSSVQIYNLSQNIQEDDLQQLQLFTEYGRLAMDEIFQKPFQTLMFLVRDWSFPYEYSYGLQGGMAFLDKRLQVKEHQHEEIQNVRNHIHSCFSDVTCFLLPHPGLQVATSPDFDGKLKDIAGEFKEQLQALIPYVLNPSKLMEKEINGSKVTCRGLLEYFKAYIKIYQGEDLPHPKSMLQATAEANNLAAAASAKDIYYNNMEEVCGGEKPYLSPDILEEKHCEFKQLALDHFKKTKKMGGKDFSFRYQQELEEEIKELYENFCKHNGSKNVFSTFRTPAVLFTGIVALYIASGLTGFIGLEVVAQLFNCMVGLLLIALLTWGYIRYSGQYRELGGAIDFGAAYVLEQASSHIGNSTQATVRDAVVGRPSMDKKAQ
modifications: glycosylated (sialylated glycans)
B4: STT3A (enzyme, UniProt P46977 1-705)
chain: MTKFGFLRLSYEKQDTLLKLLILSMAAVLSFSTRLFAVLRFESVIHEFDPYFNYRTTRFLAEEGFYKFHNWFDDRAWYPLGRIIGGTIYPGLMITSAAIYHVLHFFHITIDIRNVCVFLAPLFSSFTTIVTYHLTKELKDAGAGLLAAAMIAVVPGYISRSVAGSYDNEGIAIFCMLLTYYMWIKAVKTGSICWAAKCALAYFYMVSSWGGYVFLINLIPLHVLVLMLTGRFSHRIYVAYCTVYCLGTILSMQISFVGFQPVLSSEHMAAFGVFGLCQIHAFVDYLRSKLNPQQFEVLFRSVISLVGFVLLTVGALLMLTGKISPWTGRFYSLLDPSYAKNNIPIIASVSEHQPTTWSSYYFDLQLLVFMFPVGLYYCFSNLSDARIFIIMYGVTSMYFSAVMVRLMLVLAPVMCILSGIGVSQVLSTYMKNLDISRPDKKSKKQQDSTYPIKNEVASGMILVMAFFLITYTFHSTWVTSEAYSSPSIVLSARGGDGSRIIFDDFREAYYWLRHNTPEDAKVMSWWDYGYQITAMANRTILVDNNTWNNTHISRVGQAMASTEEKAYEIMRELDVSYVLVIFGGLTGYSSDDINKFLWMVRIGGSTDTGKHIKENDYYTPTGEFRVDREGSPVLLNCLMYKMCYYRFGQVYTEAKRPPGFDRVRNAEIGNKDFELDVLEEAYTTEHWLVRIYKVKDLDNRGLSRT
modifications: glycosylated (primarily high mannose type glycans)

Biological target: human epidermal growth factor receptor 2 (ERBB2) (human) (UniProt P04626)
Assay: proximity labelling; AAPL: SKBR3 cells treated with anti-ERBB2 antibody (Herceptin) carrying an Fe(III) probe (FeDBAb, optimal condition M5), then H2O2; membrane proteins enriched, quantitative oxidative proteomics; AAPL score >1 = L1, 0-1 with EPO FC >1.5 = L2 interactor

Molecule	binding
VDAC1 (from UniProt P21796 1-283)	binds
CPNE3 (copine-3) (from UniProt O75131 1-537)	binds
B1	binds
B2	binds

Biological target: liver–intestine-cadherin (CDH17) (human (endogenous in Caco-2)) (UniProt Q12864)
Assay: proximity labelling; AAPL: differentiated Caco-2 cells treated with LI-cadherin-specific oxidizing antibody probe, then H2O2; quantitative oxidative proteomics; L1/L2 by AAPL score; also after pretreatment of the cells with kifunensine or the sialyltransferase inhibitor 3Fax-peracetylNeu5Ac

Molecule	binding
CEAM1 (from UniProt P13688 35-526)	binds
VTNC (from UniProt P04004 20-478)	binds
desmoplakin (from UniProt P15924 1-2871)	no binding
B1	binds
B3	binds
B4	binds
